Experimental findings from PMC3977970 are described below.

Experiment [1] deals with T1, FLAG-PTPMT1 C132S (human) (UniProt Q8WUK0).
T1 sequence: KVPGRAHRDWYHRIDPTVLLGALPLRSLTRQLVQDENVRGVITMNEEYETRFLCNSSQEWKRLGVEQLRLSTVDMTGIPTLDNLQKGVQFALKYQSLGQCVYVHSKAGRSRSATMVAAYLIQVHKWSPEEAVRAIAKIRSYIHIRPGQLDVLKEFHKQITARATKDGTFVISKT
Kind of experiment: co-IP; V5-MK-STYX and FLAG-PTPMT1 co-transfected in 293FT cells; lysate 48 h after transfection; anti-FLAG antibody 2 h at 4°C, Protein G beads; washes with 1% NP40 in PBS and TNE buffer; immunoblot. On the technique in general: Immunoblotting shows a protein as a band on a membrane.

For experiment [2], the target named is T2, FLAG-PTPMT1 (wildtype) (human) (UniProt Q8WUK0).
T2 sequence: T1 sequence with S105C
The experiment is described as above.

Numbering of substitutions follows the chain as printed. Results are given in words; binding and its absence hold for the method and conditions named. In cells and extracts the contact can be indirect. Some results given as binding are weak or reduced against the parent protein; the word gives no strength. Sequences can lack the tags named with a protein.

Take “V5-MK-STYX (from UniProt Q9Y6J8-1 1-313)”: the binding result in experiment [1] and in experiment [2] was “binds” throughout.
